Test results from US20170189504A1, “NOVEL PEPTIDES AND COMBINATION OF PEPTIDES FOR USE IN IMMUNOTHERAPY AGAINST VARIOUS CANCERS” (immatics biotechnologies GmbH, priority 2015, published 2017).

Key:
HLA-A*02 = assay: Identification and relative LC-MS quantitation of HLA-A*02-presented tumor-associated peptides on tissue samples (presentation profiles, Tables 13A, 13B, 15, FIG. 1); design: species or system human; key to Presentation score NHL / Presentation score CLL / Presentation score BRCA / Presentation score AML / Presentation score GB / Presentation score NSCLC / Presentation score GBC_CCC / Presentation score UEC / Presentation score MEL / Presentation score OSCAR / Presentation score GC / Presentation score UBC / Presentation score OC / Presentation score RCC / Presentation score CRC / Presentation score PCA / Presentation score HCC / Presentation score PC / Presentation score SCLC: specifically presented on tumors (++++); very highly over-presented on tumors compared to a panel of normal tissues (+++); highly over-presented on tumors compared to a panel of normal tissues (++); over-presented on tumors compared to a panel of normal tissues (+); settings: for Peptide Presentation on cancer entities: HLA-A*02-binding tumor-associated peptides
source genes (mRNA) [1] = assay: Gene and exon expression of source genes, TCGA tumor samples compared with normal tissue samples (Lonsdale, 2013) (Table 17); design: species or system human
source genes (mRNA) [2] = assay: Expression profiling of source genes by in-house RNASeq of tumor and normal tissues (Table 18, FIG. 2); design: species or system human; key: very highly over-expressed in tumors compared to a panel of normal tissues (+++); highly over-expressed in tumors compared to a panel of normal tissues (++); over-expressed in tumors compared to a panel of normal tissues (+); settings: source gene of peptide

“235: peptide found in MSH6 (gene looked up) (KIIDFLSAL; listed as Homo sapiens) [compound 235]” was tested, and the “Presentation score AML” value (HLA-A*02; HLA-A*02 peptides, acute myeloid leukemia (N = 18) vs panel of normal tissues (N = 262)) was “++++”, the “Presentation score NHL” value (HLA-A*02; HLA-A*02 peptides, non-Hodgkin lymphoma (N = 18) vs panel of normal tissues (N = 262)) was “++++” and the “Presentation score OC” value (HLA-A*02; HLA-A*02 peptides, ovarian cancer (N = 20) vs panel of normal tissues (N = 262)) was “++++”. The “Presentation score UEC” value (HLA-A*02; HLA-A*02 peptides, uterine cancer (N = 15) vs panel of normal tissues (N = 262)) was “++++”, the “Peptide Presentation on cancer entities” value (HLA-A*02; Table 13A, cancer entities on which the peptide was found presented) was “OC, UEC, AML, NHL” and the “Peptide Presentation on cancer entities” value (HLA-A*02; Table 13B, presentation on additional cancer entities) was “NSCLC, HCC, MEL, HNSCC”. The “Over-expression category of source gene (target coverage), BLCA” value (source genes (mRNA) [1]; BLCA = Bladder urothelial carcinoma (N = 408), same cutoff) was “A (>=50% of tumors above the cutoff)”, the “Over-expression category of source gene (target coverage), BRCA” value (source genes (mRNA) [1]; BRCA = Breast cancer (N = 1104), tumors more than 2-fold above highest 75% percentile of normal tissues) was “A (>=50% of tumors above the cutoff)” and the “Over-expression category of source gene (target coverage), CHOL” value (source genes (mRNA) [1]; CHOL = Cholangiocarcinoma (N = 36), same cutoff) was “A (>=50% of tumors above the cutoff)”. The “Over-expression category of source gene (target coverage), COAD” value (source genes (mRNA) [1]; COAD = Colon and rectal adenocarcinoma (N = 462), same cutoff) was “A (>=50% of tumors above the cutoff)”, the “Over-expression category of source gene (target coverage), DLBC” value (source genes (mRNA) [1]; DLBC = Lymphoid neoplasm diffuse large B-cell lymphoma (N = 48), same cutoff) was “A (>=50% of tumors above the cutoff)” and the “Over-expression category of source gene (target coverage), ESCA” value (source genes (mRNA) [1]; ESCA = Esophageal cancer (N = 185), same cutoff) was “A (>=50% of tumors above the cutoff)”. The “Over-expression category of source gene (target coverage), GBM” value (source genes (mRNA) [1]; GBM = Glioblastoma multiforme (N = 169), same cutoff) was “A (>=50% of tumors above the cutoff)”, the “Over-expression category of source gene (target coverage), KIRC” value (source genes (mRNA) [1]; KIRC = Clear cell kidney carcinoma (N = 534), same cutoff) was “A (>=50% of tumors above the cutoff)” and the “Over-expression category of source gene (target coverage), KIRP” value (source genes (mRNA) [1]; KIRP = Papillary kidney carcinoma (N = 291), same cutoff) was “B (>= 20% of tumors above the cutoff, but <50%)”. For the same substance, the “Over-expression category of source gene (target coverage), LAML” value (source genes (mRNA) [1]; LAML = Acute Myeloid Leukemia (N = 173), same cutoff) was “A (>=50% of tumors above the cutoff)”, the “Over-expression category of source gene (target coverage), LGG” value (source genes (mRNA) [1]; LGG = Lower grade glioma (N = 534), same cutoff) was “B (>= 20% of tumors above the cutoff, but <50%)” and the “Over-expression category of source gene (target coverage), LIHC” value (source genes (mRNA) [1]; LIHC = Liver hepatocellular carcinoma (N = 374), same cutoff) was “A (>=50% of tumors above the cutoff)”. For the same substance, the “Over-expression category of source gene (target coverage), LUAD” value (source genes (mRNA) [1]; LUAD = Lung adenocarcinoma (N = 517), same cutoff) was “A (>=50% of tumors above the cutoff)”, the “Over-expression category of source gene (target coverage), LUSC” value (source genes (mRNA) [1]; LUSC = Lung squamous cell carcinoma (N = 503), same cutoff) was “A (>=50% of tumors above the cutoff)” and the “Over-expression category of source gene (target coverage), OV” value (source genes (mRNA) [1]; OV = Ovarian serous cystadenocarcinoma (N = 309), same cutoff) was “A (>=50% of tumors above the cutoff)”. The “Over-expression category of source gene (target coverage), PAAD” value (source genes (mRNA) [1]; PAAD = Pancreatic ductal adenocarcinoma (N = 179), same cutoff) was “B (>= 20% of tumors above the cutoff, but <50%)”, the “Over-expression category of source gene (target coverage), PRAD” value (source genes (mRNA) [1]; PRAD = Prostate adenocarcinoma (N = 498), same cutoff) was “A (>=50% of tumors above the cutoff)” and the “Over-expression category of source gene (target coverage), READ” value (source genes (mRNA) [1]; READ = Colon and rectal adenocarcinoma (N = 167), same cutoff) was “A (>=50% of tumors above the cutoff)”. The “Over-expression category of source gene (target coverage), SKCM” value (source genes (mRNA) [1]; SKCM = Skin cutaneous melanoma (N = 473), same cutoff) was “A (>=50% of tumors above the cutoff)”, the “Over-expression category of source gene (target coverage), STAD” value (source genes (mRNA) [1]; STAD = Stomach adenocarcinoma (N = 415), same cutoff) was “B (>= 20% of tumors above the cutoff, but <50%)” and the “Over-expression category of source gene (target coverage), UCEC” value (source genes (mRNA) [1]; UCEC = Uterine corpus endometrial carcinoma (N = 546), same cutoff) was “A (>=50% of tumors above the cutoff)”. The “Expression score BRCA” value (source genes (mRNA) [2]; BRCA tumors vs panel of normal tissues) was “+”, the “Expression score AML” value (source genes (mRNA) [2]; acute myeloid leukemia (N = 11) vs panel of normal tissues) was “+” and the “Expression score OSCAR” value (source genes (mRNA) [2]; esophageal cancer incl. gastric-esophageal junction (N = 11) vs panel of normal tissues) was “+”. For the same substance, the “Expression score NHL” value (source genes (mRNA) [2]; non-Hodgkin lymphoma (N = 10) vs panel of normal tissues) was “+”, the “Expression score NSCLC” value (source genes (mRNA) [2]; non-small cell lung cancer (N = 11) vs panel of normal tissues) was “+” and the “Expression score OC” value (source genes (mRNA) [2]; ovarian cancer (N = 12) vs panel of normal tissues) was “++”. For the same substance, the “Expression score SCLC” value (source genes (mRNA) [2]; small cell lung cancer (N = 10) vs panel of normal tissues) was “++” and the “Expression score UBC” value (source genes (mRNA) [2]; urinary bladder cancer (N = 10) vs panel of normal tissues) was “+”.

For some assays here: Expression values are those of the mRNA of the gene that encodes the peptide; a gene is named only where it was looked up.
